PubChem BioAssay AID1259424, University of Nebraska Medical Center, 2018
The whole screen tested about 14,000 reagents; below is an unselected part. 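Higher correlation or smaller distance means closer resemblance to KSR1 loss; control wells, including KSR1 knockdowns, recur on many plates.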 Not all columns of the deposit are shown. The record does not give: the time to read-out.

Aim: 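Seek colon cancer survival genes behaving like KSR1, using a six-gene signature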 (primary screen)
Cell system: human HCT116 colon cancer cells
Knock-down reagent: siRNA pool against human genes, 50 nM
Detection: 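Log2 levels of six mRNAs (branched-DNA multiplex), adjusted by two reference genes and the non-targeting median, then scored against the average KSR1 knockdown pattern as Pearson r and euclidean distance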
Reading the numbers: mean correlation with KSR1 profile: higher = expression change more like KSR1 knockdown

Which result is listed for SERGEF [SID363998084]?
mean correlation with KSR1 profile: -0.216

Which result is listed for ARL17A [SID364000252]?
mean correlation with KSR1 profile: -0.436

Which result is listed for RUFY1 [SID364003284]?
mean correlation with KSR1 profile: -0.355

How did the screen score NLE1 [SID364000777]?
mean correlation with KSR1 profile: 0.385

For EPC2 [SID363999611], what does the deposit list?
mean correlation with KSR1 profile: -0.0545

For VCX3A [SID364000075], how do the results read?
mean correlation with KSR1 profile: -0.711

How did the screen score HERPUD2 [SID364002427]?
mean correlation with KSR1 profile: -0.401

For ITGB4 [SID363991548], what was measured?
mean correlation with KSR1 profile: -0.146

How did the screen score ZKSCAN8 [SID363997120]?
mean correlation with KSR1 profile: -0.384

With ABHD3 [SID364004551], what does the deposit list?
mean correlation with KSR1 profile: 0.241

What did the screen give for GCGR [SID363991496]?
mean correlation with KSR1 profile: 0.778

For TM4SF4 [SID363995585], what does the deposit list?
mean correlation with KSR1 profile: 0.293

For BPHL [SID363995321], what does the deposit list?
mean correlation with KSR1 profile: 0.0813

With APBB2 [SID364004821], how do the results read?
mean correlation with KSR1 profile: -0.0579

How did the screen score SRPK3 [SID363998794]?
mean correlation with KSR1 profile: 0.153

How did the screen score NOC4L [SID364002731]?
mean correlation with KSR1 profile: -0.758

For KLHL1 [SID364001875], what does the deposit list?
mean correlation with KSR1 profile: 0.782

For RYR3 [SID363992333], how do the results read?
mean correlation with KSR1 profile: -0.186

For LUC7L2 [SID363999798], what does the deposit list?
mean correlation with KSR1 profile: -0.505

With NLN [SID364001795], what was measured?
mean correlation with KSR1 profile: 0.0311

With PLAAT1 [SID364001653], what was measured?
mean correlation with KSR1 profile: 0.3

What is on record for CFAP69 [SID364003059]?
mean correlation with KSR1 profile: 0.77

With PRKACA [SID363993888], what does the deposit list?
mean correlation with KSR1 profile: 0.153

What is on record for SH3BGRL3 [SID364003575]?
mean correlation with KSR1 profile: -0.146

What is on record for INGX [SID364004461]?
mean correlation with KSR1 profile: -0.499

How did the screen score FRAS1 [SID364001880]?
mean correlation with KSR1 profile: 0.25

With TPTE2 [SID364004522], how do the results read?
mean correlation with KSR1 profile: 0.335

What did the screen give for H1-4 [SID363996237]?
mean correlation with KSR1 profile: -0.0298

3 entries from above, arranged by “mean correlation with KSR1 profile”, lowest first.
VCX3A [SID364000075] — mean correlation with KSR1 profile: -0.711
HERPUD2 [SID364002427] — mean correlation with KSR1 profile: -0.401
EPC2 [SID363999611] — mean correlation with KSR1 profile: -0.0545
